Binding data for three substances are collected here from article PMC11099142.

Amino acid sequences for entries named in this document (tags omitted).
UniProt P01106: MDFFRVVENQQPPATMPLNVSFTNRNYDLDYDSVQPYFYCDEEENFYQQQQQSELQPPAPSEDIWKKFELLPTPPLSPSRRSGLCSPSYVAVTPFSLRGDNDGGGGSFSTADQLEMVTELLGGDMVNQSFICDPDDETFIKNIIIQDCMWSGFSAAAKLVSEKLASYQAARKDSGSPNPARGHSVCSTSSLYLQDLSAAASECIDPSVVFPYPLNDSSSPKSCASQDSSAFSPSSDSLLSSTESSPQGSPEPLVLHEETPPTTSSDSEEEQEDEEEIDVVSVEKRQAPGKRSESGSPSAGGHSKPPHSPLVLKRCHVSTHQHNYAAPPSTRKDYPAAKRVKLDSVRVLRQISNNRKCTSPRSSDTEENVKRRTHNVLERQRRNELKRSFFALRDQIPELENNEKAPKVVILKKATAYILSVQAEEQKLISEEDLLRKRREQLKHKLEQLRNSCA
UniProt P08047: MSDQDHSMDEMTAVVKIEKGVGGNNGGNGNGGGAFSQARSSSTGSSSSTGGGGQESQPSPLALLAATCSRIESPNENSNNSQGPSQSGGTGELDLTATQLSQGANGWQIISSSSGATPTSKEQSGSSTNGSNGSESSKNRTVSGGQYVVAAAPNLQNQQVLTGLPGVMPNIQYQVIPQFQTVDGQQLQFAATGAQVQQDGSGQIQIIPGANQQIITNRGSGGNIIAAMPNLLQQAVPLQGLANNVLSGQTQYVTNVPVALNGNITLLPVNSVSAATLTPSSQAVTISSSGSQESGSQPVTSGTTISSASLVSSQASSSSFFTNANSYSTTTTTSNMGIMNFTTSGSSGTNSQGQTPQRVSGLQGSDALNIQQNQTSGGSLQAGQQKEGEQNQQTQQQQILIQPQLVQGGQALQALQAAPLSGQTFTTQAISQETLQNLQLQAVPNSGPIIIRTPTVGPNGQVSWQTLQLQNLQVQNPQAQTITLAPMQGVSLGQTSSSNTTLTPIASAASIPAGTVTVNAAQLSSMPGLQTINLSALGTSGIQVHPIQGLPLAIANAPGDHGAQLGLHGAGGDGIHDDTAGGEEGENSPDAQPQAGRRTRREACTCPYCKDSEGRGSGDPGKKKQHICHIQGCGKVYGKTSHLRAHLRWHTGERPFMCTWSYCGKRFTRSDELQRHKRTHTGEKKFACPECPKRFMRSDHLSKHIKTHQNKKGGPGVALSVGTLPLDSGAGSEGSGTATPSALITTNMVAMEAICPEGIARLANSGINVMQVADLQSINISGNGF
UniProt Q13547: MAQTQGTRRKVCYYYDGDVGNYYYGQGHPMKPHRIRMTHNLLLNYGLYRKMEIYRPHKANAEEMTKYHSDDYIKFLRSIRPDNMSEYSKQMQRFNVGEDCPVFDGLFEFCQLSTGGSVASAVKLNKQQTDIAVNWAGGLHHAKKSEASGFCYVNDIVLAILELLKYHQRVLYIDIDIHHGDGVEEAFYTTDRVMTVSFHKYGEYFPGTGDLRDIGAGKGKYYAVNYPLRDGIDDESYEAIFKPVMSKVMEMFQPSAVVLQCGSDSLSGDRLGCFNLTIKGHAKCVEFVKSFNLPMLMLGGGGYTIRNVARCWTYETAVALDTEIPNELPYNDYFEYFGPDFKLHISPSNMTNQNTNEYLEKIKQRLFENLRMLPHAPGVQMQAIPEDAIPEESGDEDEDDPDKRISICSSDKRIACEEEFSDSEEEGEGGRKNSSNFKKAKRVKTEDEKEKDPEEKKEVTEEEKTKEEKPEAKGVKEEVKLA

Experiment [1] has as its target c-Myc (human (endogenous in TOV-112D)) (UniProt P01106). Put plainly: co-IP; TOV-112D PT-res cell lysates in HNTG buffer, treated or not with CDDP; primary antibody overnight at 4 °C, protein A or G agarose; western blot.
For experiment [2] the target is unchanged. Described as above. This is another data set of the same source.
Experiment [3] addresses SP1 (human (endogenous in TOV-112D)) (UniProt P08047). Nature of the experiment: co-IP; IP of SP1 from formaldehyde-cross-linked, MNase-digested chromatin (ChIP kit, magnetic beads) of TOV-112D PT-sen cells, treated or not with CDDP (50 uM, 16 h); western blot of SP1-bound proteins.

Like-named read-outs stand apart in the source and are kept apart here. Results are given in words; binding and its absence hold for the method and conditions named. Binding seen in cells or lysates may run through a third protein. Some results given as binding are weak or reduced against the parent protein; the word gives no strength.

As for “HDAC1 (from UniProt Q13547 1-482) (enzyme)”, the binding entry in experiment [1] is reported as “binds weakly”; in experiment [2], “no binding (condition: in PT-res cells)”.
SP1 (from UniProt P08047 1-785): in experiment [2], the binding result is listed as “no binding (condition: in PT-res cells)”.
Take “c-Myc (from UniProt P01106 1-454) (other; other documents disagree on this pair)”: the binding result in experiment [3] is “binds”.
